# Results as given in paper PMC7819943, “Rice protein-binding microarrays: a tool to detect cis-acting elements near promoter regions in rice”.
# Some of the results follow.
# Target: T1, OsSMF1 (Oryza sativa, UniProt Q6ZLB0 1-436)
# T1 sequence: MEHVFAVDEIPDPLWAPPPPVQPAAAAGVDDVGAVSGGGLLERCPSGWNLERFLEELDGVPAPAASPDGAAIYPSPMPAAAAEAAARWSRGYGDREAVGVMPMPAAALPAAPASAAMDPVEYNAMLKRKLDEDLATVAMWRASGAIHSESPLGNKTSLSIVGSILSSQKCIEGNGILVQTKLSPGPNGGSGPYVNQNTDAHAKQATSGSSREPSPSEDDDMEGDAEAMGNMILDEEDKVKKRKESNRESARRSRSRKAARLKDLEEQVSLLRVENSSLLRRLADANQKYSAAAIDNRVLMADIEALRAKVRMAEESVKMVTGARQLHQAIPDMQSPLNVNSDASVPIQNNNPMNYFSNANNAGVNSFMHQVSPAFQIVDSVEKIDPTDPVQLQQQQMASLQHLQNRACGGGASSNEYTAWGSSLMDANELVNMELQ
# Assay: protein-binding microarray (RPBM); PBS, 2% BSA, 51.3 ng/ul salmon testes DNA, 50 uM zinc acetate, 200 nM TF, 25 C, 1 h; high values mean tight binding
# Settings: protein: recombinant; tags: N-terminal polyhistidine and DsRed monomer fusion (pET32a); chain copies: 2; label: CyDye5-dUTP incorporated in the synthesized complementary strand; 3' TTTTT single-stranded linker to array surface; dsDNA, one strand shown
# Summary of the method: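 For the binding signal, per-feature fluorescence intensity was read in arbitrary units on an Axon 4000B scanner. Before scanning, a 2% BSA-blocked custom Agilent array made double-stranded with Cy5-dUTP was washed after 1 h at 25 °C with 200 nM protein and 50 µM zinc acetate. The proteins were Ni–NTA-purified transcription factors with N-terminal polyhistidine and DsRed fusions, expressed in E. coli BL21-CodonPlus.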
row,Sequence,binding signal
1,TCGGCGAGTCGGCGTCGCGTCACTCCCGTGCTCCGGCGACCGGAGTCACCTAGTGCAG,3210 fluorescence intensity (a.u.)
2,ACGGTGGCGGGGATGTGGAGGGAGGTGCAGGGGTGCGGGGCGGAGTCACCTAGTGCAG,5180 fluorescence intensity (a.u.)
3,TCTTCCAGTAAACCACACCCCAACCACATCTTAGCAATGACGGAGTCACCTAGTGCAG,3160 fluorescence intensity (a.u.)
4,TGACTGTGAGCTCCAAAACTTTAGATGACATGTACTCCCTCGGAGTCACCTAGTGCAG,3690 fluorescence intensity (a.u.)
5,TGGCGAAGAGCAGTTTTGGCCTAAAAGATATAAAGAATGCCGGAGTCACCTAGTGCAG,3210 fluorescence intensity (a.u.)
6,GAAGAATATTACGCTAGCCGTCGACTACGTGTGAGAGCTCCGGAGTCACCTAGTGCAG,3990 fluorescence intensity (a.u.)
7,AACTAATATTTAGTTCCTTAATTACATTGAAACTATTTATCGGAGTCACCTAGTGCAG,27600 fluorescence intensity (a.u.)
8,CTCGGAGTCCTTGCCGGCAACTGGACAACCAAGGTGTCCACGGAGTCACCTAGTGCAG,3160 fluorescence intensity (a.u.)
9,AATCATATGTAAAACATAGATAATTTTATATGGGTGTTAGCGGAGTCACCTAGTGCAG,3160 fluorescence intensity (a.u.)
10,ACCTGGATCAACCTGACAATGAGTCAATGACTCAGGATAACGGAGTCACCTAGTGCAG,6570 fluorescence intensity (a.u.)
11,CCAAACCGCCGTCTATATGCAACTTACATGAAAACAATTGCGGAGTCACCTAGTGCAG,3530 fluorescence intensity (a.u.)
12,TAAGGTTGAAAATTCAAAATTTAGCTAATAAGTATAAATACGGAGTCACCTAGTGCAG,4700 fluorescence intensity (a.u.)
13,GAGGTGGCGCACGTCGCGCGCCGACGACGCGCTGAGGTAGCGGAGTCACCTAGTGCAG,3580 fluorescence intensity (a.u.)
14,CGTGCGAGTCGCTCATCAATCACGTCATTCGCCCACACACCGGAGTCACCTAGTGCAG,5600 fluorescence intensity (a.u.)
15,GACGCGGACGGCGCCGAGCTGCTCAAGCTCGCCCTCGACGCGGAGTCACCTAGTGCAG,5270 fluorescence intensity (a.u.)
16,CAAAAGCCTCGCCGCGCACCACCACCCAGCTCTCTCCACTCGGAGTCACCTAGTGCAG,3640 fluorescence intensity (a.u.)
17,TCTCGTCTCGTGACGAAGTTGTACGAGGTGACGTAGCTAGCGGAGTCACCTAGTGCAG,3440 fluorescence intensity (a.u.)
18,CCAAATGTAACTATACTAAGAGTCTTTTGACTAGATTTTACGGAGTCACCTAGTGCAG,3180 fluorescence intensity (a.u.)
19,TGAATTCGGACAGCAGTCACCACTCCCTCAGTCCCTCGTCCGGAGTCACCTAGTGCAG,3160 fluorescence intensity (a.u.)
20,AACAGGAGACTGGCTACTTACTTGCGCTTCTCCATTTCTGCGGAGTCACCTAGTGCAG,21000 fluorescence intensity (a.u.)
21,CGTTGTTCCTTGGGTTAGTCACACATCACCAAAACGATTTCGGAGTCACCTAGTGCAG,4490 fluorescence intensity (a.u.)
22,CGCATAGATAGACCATACGTGCCAGGTTGACAGAGTTTCACGGAGTCACCTAGTGCAG,3250 fluorescence intensity (a.u.)
23,TGTGGTAAAGCTTGGGTGTGTAGTGGGTAAGGACCCTGCACGGAGTCACCTAGTGCAG,28600 fluorescence intensity (a.u.)
24,GTCTTCTCCACGTCTCTCCCTCCCTCCCTCTCTAGAGCCTCGGAGTCACCTAGTGCAG,4096 fluorescence intensity (a.u.)
25,GTATATATACCATAAAATTTTATGGAATTTTATGTAACAACGGAGTCACCTAGTGCAG,3300 fluorescence intensity (a.u.)
26,GAGAGAGAGAGGGTGTTCGTACTGGTTGCTCACCGGCGAGCGGAGTCACCTAGTGCAG,3230 fluorescence intensity (a.u.)
27,CCTCAGTAGCGAAATCTCTGCCACACCATGGTCTTTTGACCGGAGTCACCTAGTGCAG,3570 fluorescence intensity (a.u.)

row,Sequence,binding signal
1,GTGCGAAATCCCATGGCGCTGAAATTAGACACCTCAGCGCCGGAGTCACCTAGTGCAG,4160 fluorescence intensity (a.u.)
2,GGATCGACCCTATCCGGTACCTTCAGAGGCCGGCCGTAGGCGGAGTCACCTAGTGCAG,3250 fluorescence intensity (a.u.)
3,TGCCGCCGCCGTCGTCACCGTCGCCGCCTCCGTGCTCATGCGGAGTCACCTAGTGCAG,6030 fluorescence intensity (a.u.)
4,TGGTGTTTACTGTTACTATTGTTACCATGGATCCACCACCCGGAGTCACCTAGTGCAG,3590 fluorescence intensity (a.u.)
5,GTAGCCACTGATTTCTAACGTGCTGTCGTTTGCAATGACGCGGAGTCACCTAGTGCAG,4140 fluorescence intensity (a.u.)
6,AGTACATTTATTTTGGGCTATTTATTTGTACACGTCAAGACGGAGTCACCTAGTGCAG,9600 fluorescence intensity (a.u.)
7,AACTCACCCAGTTAATCCAGTCATCAGATAGGAGCAAGATCGGAGTCACCTAGTGCAG,3610 fluorescence intensity (a.u.)
8,TTTTATGTTATTGAGAGGTACACAGTCACTCTTGATACATCGGAGTCACCTAGTGCAG,3930 fluorescence intensity (a.u.)
9,TTGCAACACCGAAAAGGCCACGTACATGCACGTGATGAGCCGGAGTCACCTAGTGCAG,5610 fluorescence intensity (a.u.)
10,CAAGAAATAACCCAAGATGGTTTTAAATAGAAACCGCAAACGGAGTCACCTAGTGCAG,3210 fluorescence intensity (a.u.)
11,GTGGTGATAGGTGATGTACACGGCGCCGGGGAGGCGATGACGGAGTCACCTAGTGCAG,3860 fluorescence intensity (a.u.)
12,CCTCCGCATCACCTGCCGCATCAGCCGTGGTGTGGGCTAGCGGAGTCACCTAGTGCAG,3720 fluorescence intensity (a.u.)
13,CTACTACTACTAACCTGACACAATTTGGATTGACCGATTGCGGAGTCACCTAGTGCAG,3820 fluorescence intensity (a.u.)
14,ACGCGAGCATACTTTGTGCACATGGCATGCCATGTAGGATCGGAGTCACCTAGTGCAG,4400 fluorescence intensity (a.u.)
15,GGAATACCATGTGTAGGCCCAGGCGCCCAGCCTATTAACGCGGAGTCACCTAGTGCAG,3170 fluorescence intensity (a.u.)
16,CGTTACCACATACGTGCATTTTGCGTGTGTGTATGTATATCGGAGTCACCTAGTGCAG,5480 fluorescence intensity (a.u.)
17,CTTCTTCGTGATGCACCTTTTGCTTTACAGCGCTAGCAATCGGAGTCACCTAGTGCAG,3700 fluorescence intensity (a.u.)
18,ACACCATGTCACATCCAACTAGGCCCTCCTCCTCTTTGATCGGAGTCACCTAGTGCAG,4410 fluorescence intensity (a.u.)
19,TCACCACCTCACTCCACTAACCAGAGAGAGAACGCAGCTACGGAGTCACCTAGTGCAG,21000 fluorescence intensity (a.u.)
20,TAGCATTAAGAAAGGACTCGCTGTACGGTCGTAGATAAGTCGGAGTCACCTAGTGCAG,3260 fluorescence intensity (a.u.)
21,ATCCTGCCGGAGTTGGACCTGGATGCGTTGCTGTCGGCGCCGGAGTCACCTAGTGCAG,3370 fluorescence intensity (a.u.)
22,TTTTGCTTCCGGTGATGTGGTGGTGCTCGGGCCTGTTATTCGGAGTCACCTAGTGCAG,4750 fluorescence intensity (a.u.)
23,AATCAGATGATCGGTGCTGCAGCCATCATTGAAGCCTGTGCGGAGTCACCTAGTGCAG,3400 fluorescence intensity (a.u.)
24,CTCTCCTGGGCATGACTCGGGTGAGGCCCAACGGTTCGGGCGGAGTCACCTAGTGCAG,3740 fluorescence intensity (a.u.)
25,TTTGGAGACGACACCAACGCGAGATCGCCACGTCGTGCCGCGGAGTCACCTAGTGCAG,6640 fluorescence intensity (a.u.)
26,ACACACACTCCCTCTCTCTTTCTGTACAGTGTCATTCCTTCGGAGTCACCTAGTGCAG,17700 fluorescence intensity (a.u.)
27,TGGTATTTTCCTGCTTTCCTACACTTCCACATCACCACAACGGAGTCACCTAGTGCAG,8720 fluorescence intensity (a.u.)

# Another view of part of the listing above:
row | Sequence | binding signal
1 | TCGGCGAGTCGGCGTCGCGTCACTCCCGTGCTCCGGCGACCGGAGTCACCTAGTGCAG | 3210 fluorescence intensity (a.u.)
4 | TGACTGTGAGCTCCAAAACTTTAGATGACATGTACTCCCTCGGAGTCACCTAGTGCAG | 3690 fluorescence intensity (a.u.)
9 | AATCATATGTAAAACATAGATAATTTTATATGGGTGTTAGCGGAGTCACCTAGTGCAG | 3160 fluorescence intensity (a.u.)
11 | CCAAACCGCCGTCTATATGCAACTTACATGAAAACAATTGCGGAGTCACCTAGTGCAG | 3530 fluorescence intensity (a.u.)
22 | CGCATAGATAGACCATACGTGCCAGGTTGACAGAGTTTCACGGAGTCACCTAGTGCAG | 3250 fluorescence intensity (a.u.)
24 | GTCTTCTCCACGTCTCTCCCTCCCTCCCTCTCTAGAGCCTCGGAGTCACCTAGTGCAG | 4096 fluorescence intensity (a.u.)
25 | GTATATATACCATAAAATTTTATGGAATTTTATGTAACAACGGAGTCACCTAGTGCAG | 3300 fluorescence intensity (a.u.)
26 | GAGAGAGAGAGGGTGTTCGTACTGGTTGCTCACCGGCGAGCGGAGTCACCTAGTGCAG | 3230 fluorescence intensity (a.u.)
4 | TGGTGTTTACTGTTACTATTGTTACCATGGATCCACCACCCGGAGTCACCTAGTGCAG | 3590 fluorescence intensity (a.u.)
8 | TTTTATGTTATTGAGAGGTACACAGTCACTCTTGATACATCGGAGTCACCTAGTGCAG | 3930 fluorescence intensity (a.u.)
16 | CGTTACCACATACGTGCATTTTGCGTGTGTGTATGTATATCGGAGTCACCTAGTGCAG | 5480 fluorescence intensity (a.u.)
17 | CTTCTTCGTGATGCACCTTTTGCTTTACAGCGCTAGCAATCGGAGTCACCTAGTGCAG | 3700 fluorescence intensity (a.u.)
24 | CTCTCCTGGGCATGACTCGGGTGAGGCCCAACGGTTCGGGCGGAGTCACCTAGTGCAG | 3740 fluorescence intensity (a.u.)
25 | TTTGGAGACGACACCAACGCGAGATCGCCACGTCGTGCCGCGGAGTCACCTAGTGCAG | 6640 fluorescence intensity (a.u.)
26 | ACACACACTCCCTCTCTCTTTCTGTACAGTGTCATTCCTTCGGAGTCACCTAGTGCAG | 17700 fluorescence intensity (a.u.)
